The values that follow are results of earlier work, collected in article PMC9610999, “Itraconazole-Induced Increases in Gilteritinib Exposure Are Mediated by CYP3A and OATP1B” (Molecules, 2022).

SMILES strings stand for the structures.

The conditions of series [1]: cited from earlier work.
Series [2] has as its system OATP1B1 uptake vs CYP3A metabolism. The settings on record: OATP1B1 hepatic uptake vs CYP3A metabolism; cited from earlier work.

In the case of `CC(C)c1c(C(=O)Nc2ccccc2)c(-c2ccccc2)c(-c2ccc(F)cc2)n1CC[C@@H](O)C[C@@H](O)CC(=O)O` [atorvastatin], the “Increase in dose-normalized AUC of atorvastatin” value in series [1] (co-administered with a single dose of rifampicin (an OATP1B inhibitor)) was 12 fold. For the same molecule, the “Change in dose-normalized AUC of atorvastatin” value in series [1] (pre-treatment with itraconazole) is given as “did not change”. Moreover, in series [2], the “Sensitivity to inhibition of uptake transport relative to the metabolic pathway” value is listed as ~ 6 fold.
